The target of this test is epitope-tagged form of the cytoplasmic domain of APP (mT-APP). Description: co-immunoprecipitation with anti-mDab1 from transfected 293T cells, Western blot to the epitope tag.

These are yes or no findings as the source states them, for the method shown. In cells and extracts the contact can be indirect. Binding can be weak; no strength is given.

B1: mDab1 p80 (mDab555 product) (protein)
chain: MSTETELQVAVKTSAKKDSRKKGQDRSEATLIKRFKGEGVRYKAKLIGIDEVSAARGDKLCQDSMMKLKGVVAGARSKGEHKQKIFLTISFGGIKIFDEKTGALQHHHAVHEISYIAKDITDHRAFGYVCGKEGNHRFVAIKTAQAAEPVILDLRDLFQLIYELKQREELEKKAQKDKQCEQAVYQTILEEDVEDPVYQYIVFEAGHEPIRDPETEENIYQVPTSQKKEGVYDVPKSQPVSAVTQLELFGDMSTPPDITSPPTPATPGDAFLPSSSQTLPGSADVFGSMSFGTAAVPSGYVAMGAVLPSFWGQQPLVQQQIAMGAQPPVAQVIPGAQPIAWGQPGLFPATQQAWPTVAGQFPPAAFMPTQTVMPLAAAMFQGPLTPLATVPGTNDSARSSPQSDKPRQKMGKESFKDFQMVQPPPVPSRKPDQPSLTCTSEAFSSYFNKVGVAQDTDDCDDFDISQLNLTPVTSTTPSTNSPPTPAPRQSSPSKSSASHVSDPTADDIFEEGFESPSKSEEQEAPDGSQASSTSDPFGEPSGEPSGDNISPQDGS
Consider B1, for which the binding entry was “binds”.

The values above are taken from US7250505.
